Measured values published in PubChem BioAssay AID588590 (National Center for Advancing Translational Sciences (NCATS), 2011).
In all, about 390,000 compounds went through this assay and about 4,000 (1%) were called active. The shares of active, inactive and inconclusive entries below differ from those in the screen. Calls come from the whole dose curve; as a rule, active = well fitted inhibition curve with a large enough effect; inconclusive = small, poorly fitted or top-dose-only effect, or another doubt; inactive = no such curve, though single readings can be large or run the other way. Potencies beside an inconclusive call are fits to weak or partial responses and may not hold up.

Protein sequences, listed by entry. Tags and fused reporters are not part of them. Lines headed by an entry give the natural chain unless they say otherwise; changes in a name come on top.
UniProt Q9UNA4: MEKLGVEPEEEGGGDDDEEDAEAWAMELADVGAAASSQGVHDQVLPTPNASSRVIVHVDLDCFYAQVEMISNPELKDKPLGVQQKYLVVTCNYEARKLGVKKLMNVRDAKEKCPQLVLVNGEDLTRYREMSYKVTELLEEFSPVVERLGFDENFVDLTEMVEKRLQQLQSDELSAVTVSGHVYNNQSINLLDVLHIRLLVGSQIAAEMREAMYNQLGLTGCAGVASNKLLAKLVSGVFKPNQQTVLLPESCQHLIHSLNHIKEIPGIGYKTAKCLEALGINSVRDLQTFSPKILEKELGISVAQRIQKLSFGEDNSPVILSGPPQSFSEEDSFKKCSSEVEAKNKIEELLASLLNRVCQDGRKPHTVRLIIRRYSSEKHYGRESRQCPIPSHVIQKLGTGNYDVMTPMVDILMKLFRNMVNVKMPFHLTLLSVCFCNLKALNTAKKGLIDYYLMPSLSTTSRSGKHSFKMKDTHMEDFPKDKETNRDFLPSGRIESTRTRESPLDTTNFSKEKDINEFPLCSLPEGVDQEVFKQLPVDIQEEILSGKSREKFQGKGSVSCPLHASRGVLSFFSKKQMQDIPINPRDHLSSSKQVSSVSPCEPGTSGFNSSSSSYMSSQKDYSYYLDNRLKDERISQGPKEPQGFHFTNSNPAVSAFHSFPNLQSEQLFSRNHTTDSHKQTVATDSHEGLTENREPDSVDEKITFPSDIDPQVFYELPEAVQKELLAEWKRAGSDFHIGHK

The molecules below were run against DNA polymerase iota (Homo sapiens) (UniProt Q9UNA4) (assay: qHTS for Inhibitors of Polymerase Iota). Details: Pol iota fluorescent replication assay, 10 min; series mostly up to 115 µM.
In short: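 Pol iota at 10 nM preincubated 15 min with compounds at room temperature; reaction started with fluorescent substrate, 50 nM final. Fluorescence read kinetically at 0 and 10 min; buffer-only wells as negative control.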
Potency is the fitted concentration of half-maximal effect.

Question: For `COc1ccccc1N1CCN(C(=O)c2cc(-c3ccco3)on2)CC1`, which Potency is on record?
Answer: Its Potency is inconclusive: 35.5 µM [inhibitor, partial curve, poor fit].

Question: Which Potency does the source give for `Cc1cc(C(=O)NCC(=O)OC(C(=O)Nc2cc(C(F)(F)F)ccc2Cl)c2ccccc2)ccc1[N+](=O)[O-]` (stereo not given) here?
Answer: The Potency was inconclusive: 39.8 µM [inhibitor, single point].

Question: With `CCC1CCCCN1S(=O)(=O)c1ccc2[nH]c(=O)ccc2c1` (stereo not given) as the molecule, how does the Potency read?
Answer: The Potency was inconclusive: 79.4 µM [inhibitor, partial curve, poor fit].

Question: How did the Potency turn out when `COc1ccccc1NC(=O)Cn1c(=O)n(-c2ccccc2Cl)c(=O)c2sc3ccccc3c21` was run?
Answer: The Potency was “inactive”.

Question: How did the Potency turn out when `COc1cccc2cc(C(=O)C3=C(O)C(=O)N(CCN4CCOCC4)C3c3ccc(C(C)(C)C)cc3)oc12` (stereo not given) was run?
Answer: The Potency was inconclusive: 31.6 µM [inhibitor, partial curve, poor fit].

Question: With `O=C(Cn1ncc2c3ccccc3n(Cc3ccccc3)c2c1=O)N1CCCCCC1` as the molecule, how does the Potency read?
Answer: Its Potency is “inactive”.

Question: How did the Potency turn out when `O=[N+]([O-])c1ccc2c(OCc3nnc(-c4ccccc4Br)o3)ncnc2c1` was run?
Answer: Its Potency is inconclusive: 35.5 µM [inhibitor, partial curve, poor fit].

Question: For `Cc1cccc(-c2cc(NC(=O)c3ccccc3C)n(-c3ccccc3)n2)c1`, which Potency is on record?
Answer: Its Potency is “inactive”.

Question: For `CCOc1ccc(NC(=O)c2cccc(N3CCCS3(=O)=O)c2)cc1`, which Potency is on record?
Answer: The Potency was “inactive”.

Question: With `O=C1C=CC(=C(c2ccc(O)cc2)c2ccc(O)cc2)C=C1` as the molecule, how does the Potency read?
Answer: The Potency was inconclusive: 15.8 µM [inhibitor, partial curve, poor fit].

Question: `CCCCCCC(=O)Nc1nc(C)c(-c2csc(Nc3cc(Cl)ccc3OC)n2)s1` was tested. Which Potency did it give?
Answer: Its Potency is inconclusive: 11.2 µM [inhibitor, full curve, poor fit].

Question: Which Potency does the source give for `COc1ccccc1N1CCN(C(=O)c2cc(=O)c3ccc(C)cc3o2)CC1` here?
Answer: The Potency was inconclusive: 17.8 µM [inhibitor, partial curve].

Question: `CN(C)/C=C/C(=O)c1ccc2noc(-c3cccc(F)c3)c2c1` was tested. Which Potency did it give?
Answer: The Potency was “inactive”.

Question: Which Potency does the source give for `Cc1ccc(S(=O)(=O)CCC(=O)Nc2sccc2C#N)cc1` here?
Answer: The Potency was “inactive”.

Question: For `CCC(=O)N1c2ccccc2CC1C(=O)NCCCN1CCN(c2ccccc2)CC1` (stereo not given), which Potency is on record?
Answer: Its Potency is “inactive”.

Question: For `Cc1nc(C)c(-c2csc(NCc3ccccc3)n2)s1`, which Potency is on record?
Answer: The Potency was inconclusive: 11.2 µM [inhibitor, partial curve, poor fit].

Question: `CCCCn1c(=O)[nH]c2nc3cc(N)ccc3nc2c1=O` was tested. Which Potency did it give?
Answer: The Potency was active: 1.26 µM.

Question: How did the Potency turn out when `N#C/C(=C(/O)C(Cl)c1ccccc1)c1nc2ccccc2s1` (stereo not given) was run?
Answer: The Potency was inconclusive: 6.31 µM [inhibitor, full curve, poor fit].

Question: How did the Potency turn out when `COCCn1c(=S)[nH]c2ccc(N(C)C)cc2c1=O` was run?
Answer: Its Potency is inconclusive: 35.5 µM [inhibitor, full curve, poor fit].

Question: With `NCCCn1c(C(=O)c2ccc(Cl)cc2)c2ccc(C(F)(F)F)cc2[n+]1[O-]` as the molecule, how does the Potency read?
Answer: The Potency was inconclusive: 39.8 µM [inhibitor, partial curve, poor fit].

Question: Which Potency does the source give for `CCOCCCNC(=O)c1ccc(OC)cc1` here?
Answer: Its Potency is “inactive”.

Question: Which Potency does the source give for `COc1cc2[nH]c(=O)n(CCC(=O)N3CCN(c4cc(Cl)ccc4C)CC3)c(=O)c2cc1OC` here?
Answer: The Potency was “inactive”.

Question: For `Cc1nc(N)sc1-c1csc(Nc2ncccn2)n1`, which Potency is on record?
Answer: Its Potency is inconclusive: 12.6 µM [inhibitor, partial curve].

Question: Which Potency does the source give for `O=C(CSc1nc2ncc(Cl)cc2[nH]1)c1c[nH]c2ccccc12` here?
Answer: The Potency was inconclusive: 79.4 µM [inhibitor, partial curve, poor fit].

Question: For `Cc1c(NC(=O)c2ccc3c(c2)OCO3)cccc1-c1nc2ccccc2o1`, which Potency is on record?
Answer: Its Potency is inconclusive: 39.8 µM [inhibitor, single point].

Question: For `CC(=O)C1=C(OC(=O)C(C)C)c2ccccc2S(=O)(=O)N1Cc1ccccc1`, which Potency is on record?
Answer: Its Potency is “inactive”.

Question: With `Cc1nc2ccccc2c(=O)n1NC(=O)c1c(O)c2c(n(CC(C)C)c1=O)CCCC2` as the molecule, how does the Potency read?
Answer: The Potency was inconclusive: 22.4 µM [inhibitor, single point].

Question: With `CC(=O)c1c(-c2ccccc2)[nH]c2ccccc12` as the molecule, how does the Potency read?
Answer: Its Potency is “inactive”.

Question: With `O=c1nc(/C=C/c2cc([N+](=O)[O-])ccc2Cl)cc(C(F)(F)F)[nH]1` as the molecule, how does the Potency read?
Answer: The Potency was inconclusive: 3.16 µM [inhibitor, full curve, poor fit].

Question: How did the Potency turn out when `CC(C)c1c(Cl)c(O)c(-c2ccccc2)c(=O)n1-c1ccc(F)cc1` was run?
Answer: Its Potency is inconclusive: 79.4 µM [inhibitor, single point].

Question: With `Cc1ccc(C(=O)Nc2ncccc2O)o1` as the molecule, how does the Potency read?
Answer: The Potency was inconclusive: 20 µM [inhibitor, single point].

Question: With `COc1ccc(C(=O)Nc2cccc(NC(=O)c3cccs3)c2)cc1` as the molecule, how does the Potency read?
Answer: The Potency was inconclusive: 89.1 µM [inhibitor, single point].

Question: With `CN(C)C/C=C/C(=O)Nc1cccc(-c2c[nH]c3ncnc(Oc4ccc(NC(=O)CC(=O)Nc5ccc(F)cc5)cc4F)c23)c1` as the molecule, how does the Potency read?
Answer: The Potency was inconclusive: 63.1 µM [inhibitor, single point].

Question: `Cc1cc(-c2onc3ccc(Cl)cc23)ccc1O` was tested. Which Potency did it give?
Answer: Its Potency is inconclusive: 7.08 µM [inhibitor, single point].

Question: Which Potency does the source give for `CCC(NC(=O)c1cccc(Cn2nc(C)c([N+](=O)[O-])c2C)c1)c1ccc(C(C)C)cc1` (stereo not given) here?
Answer: The Potency was inconclusive: 14.1 µM [inhibitor, partial curve, poor fit].

Question: For `O=C1OC(/C(=C\Nc2cc(Cl)ccc2O)[N+](=O)[O-])c2ccccc21` (stereo not given), which Potency is on record?
Answer: Its Potency is inconclusive: 25.1 µM [inhibitor, full curve, poor fit].

Question: `C#CCOCCOCCOCCNc1nc(N2CCN(C(=O)[C@H](CCCCN)n3cc([C@@H](N)CO)nn3)CC2)nc(N2CCN(C(=O)[C@H](CCCCN)n3cc([C@@H](N)CC(C)C)nn3)CC2)n1` was tested. Which Potency did it give?
Answer: Its Potency is inconclusive: 14.1 µM [inhibitor, partial curve].

Question: Which Potency does the source give for `O=C(CCc1c[nH]c2ccccc12)N/N=C/c1ccc2c(c1)OCO2` here?
Answer: Its Potency is “inactive”.

Question: How did the Potency turn out when `O=C1CSc2cc(Cl)ccc2N1` was run?
Answer: Its Potency is inconclusive: 20 µM [inhibitor, single point].

Question: Which Potency does the source give for `Cc1cc(Cl)c(S(=O)(=O)N2CCN(c3ccccc3)CC2)cc1OCC(N)=O` here?
Answer: Its Potency is inconclusive: 31.6 µM [inhibitor, single point].

Question: With `N#Cc1ccc(NC(=O)C2=COCCO2)cc1` as the molecule, how does the Potency read?
Answer: The Potency was inconclusive: 10 µM [inhibitor, single point].

Question: `O=C1SCCC1NS(=O)(=O)c1ccc([N+](=O)[O-])cc1` (stereo not given) was tested. Which Potency did it give?
Answer: The Potency was inconclusive: 39.8 µM [inhibitor, partial curve, poor fit].

Question: `COc1ccc2nc(N3C(=O)C(O)=C(C(=O)c4ccco4)C3c3ccc(C)o3)sc2c1` (stereo not given) was tested. Which Potency did it give?
Answer: The Potency was inconclusive: 12.6 µM [inhibitor, full curve, poor fit].

Question: Which Potency does the source give for `COC(=O)c1ccc(OC)c(Cn2c(=O)n(C)c(=O)c3ccccc32)c1` here?
Answer: Its Potency is “inactive”.

Question: Which Potency does the source give for `CN(C)c1ccc(C=O)cc1Cl` here?
Answer: The Potency was “inactive”.

Question: `O=C(N/N=C/c1ccco1)c1cc(-c2ccc(Cl)s2)[nH]n1` was tested. Which Potency did it give?
Answer: Its Potency is inconclusive: 44.7 µM [inhibitor, partial curve].

Question: How did the Potency turn out when `Cc1ccc(NC(=O)c2nc(S(C)(=O)=O)ncc2N(Cc2ccccc2)Cc2ccco2)c(C)c1` was run?
Answer: The Potency was “inactive”.

Question: For `Cc1c(NC(=O)c2cc([N+](=O)[O-])ccc2N2CCOCC2)cccc1-c1nc2ccccc2o1`, which Potency is on record?
Answer: The Potency was active: 22.4 µM.

Question: Which Potency does the source give for `CC(C)=C1C2CCC1C1C(=O)N(c3nc(-c4ccc(F)cc4)c(C)s3)C(=O)C21` (stereo not given) here?
Answer: The Potency was inconclusive: 39.8 µM [inhibitor, single point].

Question: Which Potency does the source give for `CC1(C)Oc2ccc(C(=O)NN)cc2NC1=O` here?
Answer: The Potency was “inactive”.

Question: How did the Potency turn out when `C=CCn1c(SCc2nc3ccccc3c(=O)[nH]2)nc2scc(C3CC3)c2c1=O` was run?
Answer: Its Potency is inconclusive: 22.4 µM [inhibitor, single point].

Question: `O=C(COC(=O)c1cccnc1Cl)NCc1ccco1` was tested. Which Potency did it give?
Answer: The Potency was inconclusive: 50.1 µM [inhibitor, partial curve].

Question: For `CC1(c2ccccc2)CC(C)(C)N(C(N)=O)c2ccccc21` (stereo not given), which Potency is on record?
Answer: The Potency was inconclusive: 0.708 µM [inhibitor, full curve, poor fit].

Question: For `Cc1ccc(N(CC(=O)N2CC(=O)Nc3ccccc32)S(=O)(=O)c2ccc3c(c2)OCCO3)cc1`, which Potency is on record?
Answer: The Potency was active: 79.4 µM.

Question: With `CNC[C@H](O)c1cccc(O)c1` as the molecule, how does the Potency read?
Answer: Its Potency is “inactive”.

Question: Which Potency does the source give for `CCOC(=O)c1c(C)[nH]c(C=Nc2ccc(OC)cc2)c1O` here?
Answer: Its Potency is inconclusive: 44.7 µM [inhibitor, partial curve, poor fit].

Question: With `COC(=O)c1ccc(NC(=O)Cc2ccc(F)cc2)cc1` as the molecule, how does the Potency read?
Answer: The Potency was inconclusive: 89.1 µM [inhibitor, single point].

Question: Which Potency does the source give for `COc1ccc(C(=O)Nc2cc(C)c(NC(=O)c3ccccc3OC)cn2)cc1` here?
Answer: The Potency was inconclusive: 22.4 µM [inhibitor, partial curve, poor fit].

Question: With `CN(C[C@H](c1ccccc1)N(C[C@H](Cc1ccccc1)N(CCc1ccccc1)N=O)N=O)N=O` as the molecule, how does the Potency read?
Answer: The Potency was inconclusive: 12.6 µM [inhibitor, partial curve, poor fit].

Question: With `CCn1cc(C(=O)N2CCN(c3cccc(Cl)c3)CC2)c(=O)c2cc(S(=O)(=O)N3CCOCC3)ccc21` as the molecule, how does the Potency read?
Answer: Its Potency is inconclusive: 89.1 µM [inhibitor, single point].

Question: With `COc1ccc(S(=O)(=O)N(C)CC(=O)Nc2ccc3c(c2)OCO3)cc1` as the molecule, how does the Potency read?
Answer: The Potency was inconclusive: 70.8 µM [inhibitor, partial curve].

Question: How did the Potency turn out when `CCc1cccc2c1NC(=O)[C@]21[C@@H]2C(=O)N(Cc3ccccc3)C(=O)[C@@H]2[C@@H]2CCCN21` was run?
Answer: Its Potency is inconclusive: 15.8 µM [inhibitor, full curve, poor fit].

Question: `Cc1ccc(C2CC(=O)N(Cc3ccccc3F)c3c2c(C)nn3-c2nc(C)cc(C)n2)cc1` (stereo not given) was tested. Which Potency did it give?
Answer: Its Potency is “inactive”.

Question: How did the Potency turn out when `C=CCn1c(SCC(=O)NCc2ccco2)nnc1-c1ccc2ccccc2n1` was run?
Answer: Its Potency is inconclusive: 56.2 µM [inhibitor, partial curve, poor fit].

Question: With `O=C(NCCO)c1cccc(Nc2nc(-c3ccccc3)c3cc(Cl)ccc3n2)c1` as the molecule, how does the Potency read?
Answer: Its Potency is inconclusive: 56.2 µM [inhibitor, single point].
